For one experiment, the target named is human MRGPRX2 (Homo sapiens, UniProt Q96LB1). Kind of experiment: In vitro target binding assay: BRET between MRGPRX2-Nluc and Venus-β-arrestin1 in transfected HEK-293T cells, antagonist mode against agonist R-ZINC-3573 (EC80). The conditions noted are these: antagonism of agonist R-ZINC-3573 at EC80, net BRET. The source says: Bioluminescence Resonance Energy Transfer (BRET) is an important biophysical technique for monitoring molecular interactions, and has been widely used to study protein-protein interactions in living cells. This technique requires the relevant proteins to be linked to an energy donor (such as luciferase) and an acceptor (such as a fluorescent protein). When a relevant drug molecule interacts with the protein, the protein structure alters, causing a change in the distance between the energy donor and the energy acceptor. The luminescence energy induced by the chemical reaction is transferred to the corresponding acceptor, resulting in increased acceptor emission, and generating a BRET signal. In this work, a DNA-synthesized target human MRGPRX2 and a donor luciferase Nluc (NanoLuc®Promega) (Supplier: Beijing Tsingke, Lot No.: SZ0171228-1), as well as an acceptor fluorescent protein Venus and the relevant test protein, namely human β-arrestin1 (ARRB1) (Supplier: Guangzhou Dahong Biotechnology, Lot No. HY22694-4396), were utilized, and were inserted into the eukaryotic expression vector plasmid pcDNA3.1(+) (Supplier: Qiyun Bio, Lot No.: QY2310) as fusion genes via a Linker sequence (GGSG). The cell line selected for the experiment was human embryonic kidney cells HEK-293T. The human embryonic kidney cell line HEK-293T was routinely cultured in 10 cm cell culture dishes using complete culture medium consisting of high-glucose DMEM medium supplemented with 10% (V/V) fetal bovine serum. Cells were seeded at 2×10^6 cells/10 cm dish on the first day of culture, and passaged every 72 h with the same number of cells. One day prior to transfection, cells were resuspended, counted, and seeded at a density of 2×10^6 cells/6 cm dish or 4×10^6 cells/10 cm dish. Transfection was carried out 16-24 h after seeding. Plasmids constructed with the fusion protein gene were transfected into the expression cell line, and the transfected cells were cultured under appropriate conditions for a period of time to allow sufficient expression of the fusion proteins. Transfection was performed by encapsulating plasmid DNA with PEI reagent, and the encapsulation process should to be carried out in Opti-MEM medium. The ratio of plasmid, PEI (Supplier: Yeasen Biotechnology, Lot No.: WP5430010), and Opti-MEM (Supplier: Gibco, Lot No.: 2883564) was 1:4:14 (W: W: V). The encapsulated plasmid was added to an appropriate amount of complete culture medium, amd gently mixed, which was then used to replace the existing culture medium of the previously plated cells. Cells were harvested 24 h after transfection. Subsequently, cells were resuspended using HBSS (Source: Biosharp, Lot No.: 24179687) and counted with a cell counter. The cells were diluted to a density of (3~5) ×10^5 cells/mL, and then seeded into a flat-bottom white 96-well microplate at 100 µ L/well, resulting in (3~5) ×10^4 cells per well. In each well, 10 µ L of antagonist compounds diluted with HBSS a different concentrations were added firstly, then the agonist compound at a specific concentration (EC80) was added. After reacting for 2 min, the substrate Furimazine (Supplier: TargetMol, Lot No.: 362434) at a final concentration of 10 µM was added. After reacting for another 2 min, the 96-well plate was placed in a PHERAstar FSX microplate reader (Supplier: BMG Labtech) to simultaneously measure the readings at wavelengths of 440 nm and 530 nm. Based on the fluorescence readings at 440 nm and 530 nm, the Ratio and net BRET were calculated. Ratio = Em530 nm / Em440 nm, and net BRET = Ratio co-transfection - Ratio single-transfection. The calculated net BRET values were inputted into GraphPad Prism 9, and curve fitting via nonlinear regression (four-parameter equation) and IC50 calculation were performed.
Background: Bioluminescence resonance energy transfer reports proximity on the nanometre scale.

Sequences of proteins named here, by UniProt entry; tags and fusion partners are left off.
UniProt Q96LB1, whole entry: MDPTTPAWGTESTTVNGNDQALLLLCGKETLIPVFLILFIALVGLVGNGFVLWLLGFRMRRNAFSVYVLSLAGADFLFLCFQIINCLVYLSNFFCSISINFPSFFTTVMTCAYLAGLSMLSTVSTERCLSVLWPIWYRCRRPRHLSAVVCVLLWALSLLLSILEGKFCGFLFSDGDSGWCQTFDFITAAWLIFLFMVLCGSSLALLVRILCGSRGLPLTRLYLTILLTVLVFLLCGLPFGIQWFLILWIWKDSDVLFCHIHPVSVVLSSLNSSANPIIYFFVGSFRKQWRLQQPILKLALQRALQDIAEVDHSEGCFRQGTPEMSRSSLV

The test system of experiment [1] is BALB/c mice. Kind of experiment: Atopic dermatitis model: MC903 (calcipotriol) on right ear, ear thickness. The settings on record: 50 mg/kg BID p.o., mean ± SEM. As for the experimental part: (§1) Experimental animals: BALB/c mice, from Guangdong Vital River Laboratory Animal Technology Co., Ltd.
MC903 (calcipotriol) (Supplier: TargetMol, Lot No.: 235760) was applied to the right ear of mice, once a day, for 14 consecutive days.
The animals were randomly divided into 6 groups before induction on D1. The model control group was administered with vehicle alone under the same conditions. Administration was carried out according to the following groups:
During the experiment period, the thickness of the right ear of the mice was measured. […] The data are presented as mean ± standard error of the mean (SEM).

In a further experiment the test system is C57BL/6 mice. Kind of experiment: Inflammatory bowel disease model: 3% DSS drinking water, DAI score. The settings on record: mean ± SEM. As for the experimental part: Experimental animals: C57BL/6 mice, from Guangdong Vital River Laboratory Animal Technology Co., Ltd.
C57BL/6 mice were used. 3% DSS (Dextran Sulfate Sodium) (Supplier: MPBIO, Lot No.: YD11024) in water was prepared as drinking water for the mice.
During the experiment, the animals were weighed at a fixed time daily, and their status (including feces, mortality) was observed. The efficacy was evaluated by the DAI score. The details of the DAI scoring criteria are as follows: 0 point for normal stool, 1 point for soft but formed stool, 2 points for soft stool, 3 points for soft and wet stool, 4 points for loose stool; 0-1 point for no occult blood, 2 points for occult blood positive, 3 points for visible blood in stool, 4 points for severe fecal blood; 0 point for no weight loss or weight gain, 1 point for weight loss of 1%-5%, 2 points for weight loss of 6%-10%, 3 points for weight loss of 11%-15%, 4 points for weight loss > 15%. The sum of the scores for 3 items is the total DAI score, and the weighing and scoring were carried out every other day. […] The DAI scores are shown in Table 5, and the data are presented as mean + standard error of the mean (SEM): Table 5

Experiment [2] concerns BALB/c mice. Kind of experiment: Rosacea model: intradermal LL-37 in mice, erythema score. The conditions noted are these: once daily, score 0-4, mean ± SEM.
From the text: as §1
The hair on the back of the mice was shaved, and the modeling area was marked on the back skin, avoiding positions with abundant subcutaneous blood vessels. LL-37 (an antimicrobial peptide used for rosacea modeling) (Supplier: QYAOBlO (ChinaPeptides), Lot No.: 20240319) solution was drawn with a microsyringe and injected intradermally along the intradermal path. The needle was withdrawn slowly after injection. The modeling continued for 5 to 7 days, with injections administered twice a day.
Administration was initiated on the day of grouping, which was designated as D1, and was performed once daily for 7 consecutive days. The normal control group and the model control group were administered with vehicle alone under the same conditions. The changes in skin lesions at the injection site on the back of mice in each group were observed, and scores ranging from 0 to 4 were assigned based on the degree of erythema, wherein, a score of 0 indicates no erythema, a score of 1 indicates barely visible erythema, a score of 2 indicates pale erythema with blurred boundaries, a score of 3 indicates erythema with clear boundaries, and a score of 4 indicates dark erythema with clear boundaries. The administration regimen for the mouse rosacea model was as follows: […]

The structures given here were assigned with low confidence; some may be wrong.

By IC50 is commonly meant the concentration that gives 50% inhibition. Read a high IC50 as a need for much substance.

Molecule `CCCNS(=O)(=O)c1ccc(-c2cc3c(cc2F)c(=O)c(C(=O)O)cn3C2CC2)cc1F` had an IC50 at human MRGPRX2 of 10 to 80 µM. Further, the “Right Ear Thickness of Mice” value with BALB/c mice [1] (D2) turned out to be 0.19±0.05 mm; with BALB/c mice [1] (D4), 0.27 ± 0.04 mm; in the experiment on BALB/c mice [1] (D6), 0.34 ± 0.02 mm; in the experiment on BALB/c mice [1] (D8), 0.44 ± 0.04 mm; in the experiment with BALB/c mice [1] (D10), 0.50 ± 0.04 mm; with BALB/c mice [1] (D12), 0.52 ± 0.04 mm. Also, in the experiment with BALB/c mice [1] (D14), the “Right Ear Thickness of Mice” value amounted to 0.54 ± 0.04 mm.
As to `CCCNS(=O)(=O)c1ccc(-c2c(F)cc3c(=O)c(C(=O)OC)cn(C4CC4)c3c2OC)cc1`, the IC50 on human MRGPRX2 was in the range of 1 to 10 µM. The DAI score in the experiment on C57BL/6 mice (D1, 20mg/kg QD p.o.) is listed as 0.00±0.00; in the experiment with C57BL/6 mice (D2, 20mg/kg QD p.o.) it was 1.0±1.0; in the experiment with C57BL/6 mice (D3, 20mg/kg QD p.o.), 1.6±1.2; with C57BL/6 mice (D4, 20mg/kg QD p.o.), 2.8±1.4; in the experiment on C57BL/6 mice (D5, 20mg/kg QD p.o.) it was 3.3±1.2; in the experiment on C57BL/6 mice (D6, 20mg/kg QD p.o.) it was 5.0±1.6.
Molecule `O=C(O)c1cn(C2CC2)c2c(Cl)c(-c3ccc(S(=O)(=O)N4CC(F)(F)C4)cn3)c(F)cc2c1=O` displayed an IC50 at human MRGPRX2 of 1 to 10 µM. The erythema score in the experiment on BALB/c mice [2] (D1, 4mg/g Topical application) came to 1.6±0.3; in the experiment on BALB/c mice [2] (D1, 40mg/kg Oral) it was 1.7±0.2; with BALB/c mice [2] (D7, 4mg/g Topical application), 1.3±0.2; with BALB/c mice [2] (D7, 40mg/kg Oral) it was 1.2±0.2.
In the case of `CCCNC(=O)c1ccc(-c2c(F)cc3c(=O)c(C(=O)O)cn(C4CC4)c3c2OC)cc1`, the IC50 on human MRGPRX2 was 1 to 10 µM. The erythema score was 1.6±0.3 in the experiment on BALB/c mice [2] (D1, 4mg/g Topical application); 1.6±0.2 in the experiment on BALB/c mice [2] (D1, 40mg/kg Oral); 2.6±0.2 in the experiment with BALB/c mice [2] (D2, 4mg/g Topical application); 2.2 · in the experiment on BALB/c mice [2] (D2, 40mg/kg Oral); 2.6 · with BALB/c mice [2] (D3, 4mg/g Topical application); 2.2 · in the experiment on BALB/c mice [2] (D3, 40mg/kg Oral). Also, the erythema score with BALB/c mice [2] (D4, 4mg/g Topical application) is 2.3 ·; in the experiment with BALB/c mice [2] (D5, 4mg/g Topical application), 1.8 ·; in the experiment on BALB/c mice [2] (D5, 40mg/kg Oral), 1.7 ·; in the experiment with BALB/c mice [2] (D6, 4mg/g Topical application), 1.5±0.3; with BALB/c mice [2] (D6, 40mg/kg Oral), 1.3 ·; with BALB/c mice [2] (D7, 4mg/g Topical application) it was 1.2±0.3. In the experiment on BALB/c mice [2] (D7, 40mg/kg Oral), the erythema score stood at 1.2±0.2. Besides, the “Right Ear Thickness of Mice” value came out at 0.19±0.04 mm in the experiment with BALB/c mice [1] (D2); 0.28 ± 0.02 mm in the experiment with BALB/c mice [1] (D4); 0.36 ± 0.04 mm in the experiment with BALB/c mice [1] (D6); 0.48 ± 0.04 mm in the experiment with BALB/c mice [1] (D8); 0.56 ± 0.04 mm in the experiment on BALB/c mice [1] (D10); 0.52 ± 0.04 mm with BALB/c mice [1] (D12). Moreover, the “Right Ear Thickness of Mice” value with BALB/c mice [1] (D14) is on record as 0.58 ± 0.04 mm.
On human MRGPRX2, `O=C(O)c1cn(C2CC2)c2cc(-c3ccc(S(=O)(=O)N4CCC4)nc3)c(F)cc2c1=O` displayed an IC50 of 1 to 10 µM. Further, the DAI score in the experiment on C57BL/6 mice (D1, 20mg/kg QD p.o.) worked out at 0.00±0.00; in the experiment with C57BL/6 mice (D2, 20mg/kg QD p.o.) it was 1.0±1.0; in the experiment on C57BL/6 mice (D3, 20mg/kg QD p.o.), 1.9±1.2; in the experiment on C57BL/6 mice (D4, 20mg/kg QD p.o.), 2.8±1.6; in the experiment with C57BL/6 mice (D5, 20mg/kg QD p.o.), 3.3±1.1; in the experiment with C57BL/6 mice (D6, 20mg/kg QD p.o.), 4.8±1.6.
For the molecule `CCCCCCCCCNS(=O)(=O)c1ccc(-c2c(F)cc3c(=O)c(C(=O)OC)cn(C4CC4)c3c2OC)cc1`, the IC50 on human MRGPRX2 was 0.1 to 1 µM. Also, the DAI score with C57BL/6 mice (D1, 20mg/kg QD p.o.) is 0.00±0.00; in the experiment with C57BL/6 mice (D2, 20mg/kg QD p.o.), 1.1±1.0; with C57BL/6 mice (D3, 20mg/kg QD p.o.) it was 1.9±1.3; in the experiment on C57BL/6 mice (D4, 20mg/kg QD p.o.) it was 2.9±1.1; with C57BL/6 mice (D5, 20mg/kg QD p.o.) it was 3.5±1.3.

The values above are taken from patent EP4834881A1, “QUINOLONE COMPOUNDS AND USE THEREOF” (dated 2026).
